The source of these data is PubChem BioAssay AID434947 (Broad Institute, 2010).

The structures appear in SMILES notation. The campaign covered roughly 2,200 compounds. About 15 (0.7%) were called active.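 Rule for the calls: active = fitted half-maximal concentration for loss of luminescence signal no more than a set limit of log units above the top tested concentration; inconclusive = flat fit with 30 to 70% signal loss, or invalid fit; inactive = half-maximal concentration above that set limit.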 This is one part of the list. Bounds are passed on as bounds.

This experiment in a line: inhibitors of ADP-Glo detection reagents, dose response, artefact control for GSK3beta inhibitor project, biochemical, luminescence, cell-free, homogeneous (AID 434947).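 Note: kinase-free counter screen of ADP-Glo detection reagents for GSK3beta hits.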 As to conditions: 5 uM ADP.
Consider `CC1CCCCC1NC(=O)CN(C)S(=O)(=O)c1cccc2cccnc12` (stereo not drawn), for which the EC50 was inactive: > 30 µM. The same measure for `CCN1CCN(Cc2ccc(NC(=O)c3ccc(C)c(/C=C/c4cnc(Nc5cc(N6CCNCC6)nc(C)n5)cn4)c3)cc2C(F)(F)F)CC1`: inactive: > 30 µM. For `CCOC(=O)c1ccc(N=c2sc(C(=O)OC)cc(=O)n2Cc2ccco2)cc1` the value was inactive: > 30 µM; for `COc1ccc2occ(C(=O)c3ccc(N=C(C)N(C)C)cc3)c2c1`, inactive: > 30 µM; for `O=[N+]([O-])c1ccc(Cl)cc1NCCCN1CCOCC1`, inactive: > 30 µM. As for `O=C(OCCCOC(=O)c1ccccc1O)c1ccccc1O`, the EC50 was inactive: > 30 µM.

As for `CC(C)=CCc1c(O)ccc2c1OC(c1ccc(O)c(O)c1)CC2=O` (stereo not drawn), the EC50 was inactive: > 30 µM. Regarding `CC(=O)c1coc2ccc(OCC(=O)O)cc12`, the EC50 is inactive: > 30 µM. Take `COc1cc(/C=N\NC(=O)c2ccccc2F)ccc1Oc1ccc([N+](=O)[O-])cn1`: the EC50 is inactive: > 30 µM. The same measure for `CNC(=O)c1ccccc1NC(=O)c1cccc(S(=O)(=O)N2CCC(C)CC2)c1`: inactive: > 30 µM; for `COCCn1c(SCC(=O)NC(C)c2ccccc2)nc2ccccc21` (stereo not drawn): inactive: > 30 µM; for `Nc1nonc1-n1nnc(C(=O)N/N=C/c2cccc(F)c2)c1CN1CCCC1`: inactive: > 30 µM. As for `Cc1oc2c(CN(C)C)c(O)ccc2c(=O)c1-c1cscn1`, the EC50 is inactive: > 30 µM. Consider `N#Cc1c(-c2ccccc2)nc(SCC(=O)NC2CCCCC2)[nH]c1=O`, for which the EC50 was inactive: > 30 µM. For `COc1cc(/C=N/n2c(C3CCCCC3)n[nH]c2=S)cc(Br)c1O` the value was inactive: > 30 µM; for `COCCn1c(SCC(=O)Nc2ccc(Cl)cn2)nc2ccccc21`, inactive: > 30 µM; for `N#Cc1c2n(c3c(-c4ccccc4)ncnc13)CCC2`, inactive: > 30 µM. As to `O=C1NC(=O)c2c(NC(=O)C3CCCO3)cccc21` (stereo not drawn), the EC50 was inactive: > 30 µM. For `CCOc1ccc(N2C(=O)C(Cl)=C(Nc3ccccc3O)C2=O)cc1` the value was inactive: > 30 µM; for `CCSc1ccc2nnc(-c3cccc(F)c3)n2n1`, inactive: > 30 µM. For `NNC(=O)CNC(=O)c1ccc(F)cc1` the value was inactive: > 30 µM; for `CC(=O)C(Sc1ccc2nnc(-c3ccc(F)cc3)n2n1)C(C)=O`, inactive: > 30 µM; for `CC1=NN(C(=O)CCc2ccc3c(c2)OCO3)C(O)(C(F)(F)F)C1` (stereo not drawn), inactive: > 30 µM.

Consider `CCOc1ccc(Nc2nc(N)c([N+](=O)[O-])c(NCc3ccccc3)n2)cc1`, for which the EC50 is inactive: > 30 µM. With `O=C(Cn1cc2c(n1)CCCCC2)NC1CCN(Cc2ccccc2)CC1`, the EC50 is inactive: > 30 µM.

Regarding `Cc1ccc(-c2nnc3ccc(SC(C)C(=O)O)nn23)cc1` (stereo not drawn), the EC50 is inactive: > 30 µM. Turning to `COc1ccc(OC)c(Nc2nc(NCc3ccco3)nc(N)c2[N+](=O)[O-])c1`, the EC50 was inactive: > 30 µM. With `COCCN(CC(=O)NCc1ccccc1)C(=O)CCC(=O)Nc1ccccn1`, the EC50 was inactive: > 30 µM. Take `Cc1ccc(OCCN(C)C(=O)C2CCC(=O)N(CCCN3CCOCC3)C2)cc1` (stereo not drawn): the EC50 was inactive: > 30 µM. For `CC(C)C(=O)NC(C)C(c1cccs1)N1CCN(c2ccccc2)CC1` (stereo not drawn), the EC50 was inactive: > 30 µM. For `CCOC(=O)c1c(S(=O)(=O)NCC(=O)Nc2ccccc2)c(C)n(C)c1C` the value was inactive: > 30 µM; for `Cc1ccnc(NC(=O)Cn2cc([N+](=O)[O-])cn2)c1`, inactive: > 30 µM. Take `CC(C)=CCc1c(O)cc2c(c1O)C(=O)CC(c1ccccc1)O2` (stereo not drawn): the EC50 was inactive: > 30 µM. The same measure for `COc1cccc(-n2c(Cn3nc(C(F)F)cc3C(F)F)n[nH]c2=S)c1`: inactive: > 30 µM.

With `Nc1nc(Cl)nc2c1ncn2[C@@H]1O[C@H](CO)[C@@H](O)[C@H]1O`, the EC50 is inactive: > 30 µM. Consider `CCCN(CCC)Cc1c(C(=O)N/N=C/c2ccc(C)o2)nnn1-c1nonc1N`, for which the EC50 is inactive: > 30 µM. On to `CCNc1nc(N)nc(-c2cc(Cl)ccc2O)n1`, for which the EC50 is inactive: > 30 µM.

Regarding `O=C(NCCO)Nc1ccc2nsnc2c1`, the EC50 was inactive: > 30 µM.

Consider `Cc1nn(-c2ccccc2)c(Cl)c1C(=O)NCc1cccs1`, for which the EC50 is inactive: > 30 µM. Regarding `O=C(NCCCN1CCCCC1)c1ccc2c(c1)NC(=O)C(N1CCCCC1)S2` (stereo not drawn), the EC50 is inactive: > 30 µM.

Consider `Nc1ncc([N+](=O)[O-])c(N2CCCCCC2)n1`, for which the EC50 is inactive: > 30 µM.

On to `COCCn1c(SCC(=O)NC(=O)NC(C)(C)C)nc2ccccc21`, for which the EC50 was inactive: > 30 µM. For `CCCN(CCC)Cc1c(C(=O)N/N=C/c2cccs2)nnn1-c1nonc1N` the value was inactive: > 30 µM; for `O=C(Oc1ccc(Cl)cc1)N1CCCCC1`, inactive: > 30 µM; for `Cc1cccc(C(=O)Nc2ccc(O)c3c(=O)cc(-c4ccccc4Cl)oc23)c1`, inactive: > 30 µM.

Turning to `CCN1CCN(c2nc(Nc3cc(OC)ccc3OC)nc(Nc3cc(OC)ccc3OC)n2)CC1`, the EC50 is inactive: > 30 µM. `CCN(CC)S(=O)(=O)c1ccc(O)c(C(=O)OCC(=O)Nc2cc(C)c(C)cc2[N+](=O)[O-])c1`: the EC50 is inactive: > 30 µM. In the case of `N#Cc1c(-c2cccs2)nc(SCC(=O)c2cccs2)[nH]c1=O`, the EC50 is inactive: > 30 µM.

On to `COc1ccccc1NC(=S)NC1CCCCCCCCCCC1`, for which the EC50 was inactive: > 30 µM. As for `COc1ccccc1/C=N/NC(=O)c1nnn(-c2nonc2N)c1CN(C)c1ccccc1`, the EC50 was inactive: > 30 µM. On to `O=C(O)c1ccc(N=Nc2c(O)[nH]c3cc(Cl)ccc23)cc1`, for which the EC50 was inactive: > 30 µM. For `COc1ccc(OC)c(Nc2c3ccccc3nc3ccccc23)c1` the value was inactive: > 30 µM; for `Cc1ccc(CC(=O)Nc2ncc([N+](=O)[O-])s2)cc1`, inactive: > 30 µM; for `COC(=O)c1ccc2nc(NC(=O)C3CC3)sc2c1`, inactive: > 30 µM. For `CCOc1ccc2c(c1)-c1c(ssc1=S)C(C)(C)N2` the value was inactive: > 30 µM; for `CS(=O)(=O)c1ccc2nc(NC(=O)CN3CCN(Cc4ccccc4)CC3)sc2c1`, inactive: > 30 µM. For the compound `Cc1ccc(Nc2nc(N)c([N+](=O)[O-])c(NCCO)n2)cc1`, the EC50 was inactive: > 30 µM. For `CCCCc1cc(=O)oc2cc(C)cc(OC(C)C(=O)O)c12` (stereo not drawn) the value was inactive: > 30 µM.

By EC50 is commonly meant the midpoint of the concentration-response curve.
